PubChem BioAssay AID686943 – Drosophila RNAi Screening Center | 2013
In all, the deposit lists about 23,000 reagents; this is an unselected part of those that have a named target and a result. 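Extra replicates exist only for a retested subset of genes; insulin dose and duration not given; both raised and lowered dpERK matter.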 Names joined by + are all predicted targets of the reagent. Further read-outs or replicates are left out here. Not stated in the record: the amount of reagent, the time to read-out.

- Test: 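Fly genes whose loss alters ERK activation after insulin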 (primary screen)
- System: Drosophila S2R+ haemocyte-like cells expressing YFP-tagged ERK (Rolled)
- Knock-down reagent: long dsRNA against Drosophila genes
- Treatment: insulin stimulation versus unstimulated cells; dose and duration not given
- Measured: 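Antibody staining for doubly phosphorylated ERK divided by ERK-YFP signal, as plate z-scores, in insulin-treated and untreated cells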
- Scale: replicate 1, z-score of dpERK with insulin and replicate 2, z-score of dpERK with insulin: higher = more active ERK per ERK-YFP after insulin

After knock-down of woc [DRSC15928], the record shows replicate 1, z-score of dpERK with insulin 0.93; replicate 2, z-score of dpERK with insulin -0.45.
With knock-down of Lint-O [DRSC18468] the results were replicate 1, z-score of dpERK with insulin 2.94; replicate 2, z-score of dpERK with insulin 0.57.
Silencing of CG14506 [DRSC14858] resulted in: replicate 1, z-score of dpERK with insulin -0.18; replicate 2, z-score of dpERK with insulin -1.49.
Or74a [DRSC11245] showed replicate 1, z-score of dpERK with insulin -0.12; replicate 2, z-score of dpERK with insulin -0.43.
With knock-down of PH4alphaNE2 [DRSC16544] the results were replicate 1, z-score of dpERK with insulin 0.82; replicate 2, z-score of dpERK with insulin 0.1.
After knock-down of ttm3 [DRSC03736] the results were replicate 1, z-score of dpERK with insulin 1.01; replicate 2, z-score of dpERK with insulin 1.23.
For CG13738 [DRSC10065], the entry reads replicate 1, z-score of dpERK with insulin -3.09; replicate 2, z-score of dpERK with insulin -2.21.
Charon [DRSC00679] scored replicate 1, z-score of dpERK with insulin 0.29; replicate 2, z-score of dpERK with insulin 0.79.
Depletion of CG18179 [DRSC10303] gave: replicate 1, z-score of dpERK with insulin 0.81; replicate 2, z-score of dpERK with insulin 0.5.
Silencing of ZnT77C [DRSC11766] resulted in: replicate 1, z-score of dpERK with insulin -0.36; replicate 2, z-score of dpERK with insulin -0.3.
Against ZnT77C [DRSC11767], the entry reads replicate 1, z-score of dpERK with insulin -0.64; replicate 2, z-score of dpERK with insulin -0.89.
Diedel3 [DRSC19544] showed replicate 1, z-score of dpERK with insulin -1.07; replicate 2, z-score of dpERK with insulin 0.17.
After knock-down of CG14762 [DRSC05073], the screen gave replicate 1, z-score of dpERK with insulin 0; replicate 2, z-score of dpERK with insulin 0.87.
Against CG14762 [DRSC06496] the deposit lists replicate 1, z-score of dpERK with insulin 0.76; replicate 2, z-score of dpERK with insulin -0.3.
For Arp3 [DRSC09669] the deposit lists replicate 1, z-score of dpERK with insulin -1.36; replicate 2, z-score of dpERK with insulin -0.32.
Against emb [DRSC03528], the entry reads replicate 1, z-score of dpERK with insulin 2.27; replicate 2, z-score of dpERK with insulin 1.48.
Galt [DRSC03161] gave replicate 1, z-score of dpERK with insulin 0.15; replicate 2, z-score of dpERK with insulin -0.39.
Silencing of CG34168 [DRSC01938] came out at: replicate 1, z-score of dpERK with insulin 0.66; replicate 2, z-score of dpERK with insulin 0.42.
For ninaC [DRSC03579], the entry reads replicate 1, z-score of dpERK with insulin 0.43; replicate 2, z-score of dpERK with insulin -1.07.
For CG42362 + CG42363 [DRSC04265], the entry reads replicate 1, z-score of dpERK with insulin -0.26; replicate 2, z-score of dpERK with insulin -0.78.

Look-ups from above:
Value of ZnT77C [DRSC11767] under “replicate 1, z-score of dpERK with insulin”: -0.64
Entry for Or74a [DRSC11245] in “replicate 1, z-score of dpERK with insulin”: -0.12
PH4alphaNE2 [DRSC16544], replicate 2, z-score of dpERK with insulin → 0.1
Value of CG13738 [DRSC10065] in “replicate 1, z-score of dpERK with insulin”: -3.09
For “replicate 2, z-score of dpERK with insulin”, Diedel3 [DRSC19544] shows 0.17
For “replicate 1, z-score of dpERK with insulin”, woc [DRSC15928] shows 0.93

The list goes on:
Depletion of CG2608 [DRSC02709] resulted in: replicate 1, z-score of dpERK with insulin 0.54; replicate 2, z-score of dpERK with insulin 0.14.
CheA7a [DRSC17965] gave replicate 1, z-score of dpERK with insulin 0.79; replicate 2, z-score of dpERK with insulin 0.27.
Knock-down of Zwilch [DRSC15376] came out at: replicate 1, z-score of dpERK with insulin -0.12; replicate 2, z-score of dpERK with insulin -0.12.
With knock-down of CG6845 [DRSC08576], the record shows replicate 1, z-score of dpERK with insulin 1.03; replicate 2, z-score of dpERK with insulin 1.86.
Silencing of luna [DRSC05253] gave: replicate 1, z-score of dpERK with insulin 0.31; replicate 2, z-score of dpERK with insulin -0.04.
After knock-down of luna [DRSC06663] the results were replicate 1, z-score of dpERK with insulin -4.73; replicate 2, z-score of dpERK with insulin -3.52.
Against luna [DRSC07336], the values are replicate 1, z-score of dpERK with insulin 1.3; replicate 2, z-score of dpERK with insulin 1.17.
Depletion of CG9393 [DRSC16486] came out at: replicate 1, z-score of dpERK with insulin -1.41; replicate 2, z-score of dpERK with insulin -0.92.
For lncRNA:CR42646 [DRSC04759], the entry reads replicate 1, z-score of dpERK with insulin 0.84; replicate 2, z-score of dpERK with insulin 0.95.
Silencing of CG31493 [DRSC12583] resulted in: replicate 1, z-score of dpERK with insulin -0.54; replicate 2, z-score of dpERK with insulin -0.41.
CG17712 [DRSC00266] gave replicate 1, z-score of dpERK with insulin -0.24; replicate 2, z-score of dpERK with insulin 0.91.
With knock-down of Crag [DRSC18454] the results were replicate 1, z-score of dpERK with insulin 0.71; replicate 2, z-score of dpERK with insulin 0.33.
Silencing of MED18 [DRSC18549] gave: replicate 1, z-score of dpERK with insulin 0.07; replicate 2, z-score of dpERK with insulin -0.86.
rgn [DRSC11609] scored replicate 1, z-score of dpERK with insulin -0.54; replicate 2, z-score of dpERK with insulin -0.11.
VhaM9.7-a [DRSC08289] scored replicate 1, z-score of dpERK with insulin 0.34; replicate 2, z-score of dpERK with insulin 0.83.
Cyp6a9 [DRSC07385] showed replicate 1, z-score of dpERK with insulin 0.99; replicate 2, z-score of dpERK with insulin -1.11.
eg [DRSC11885] gave replicate 1, z-score of dpERK with insulin -0.54; replicate 2, z-score of dpERK with insulin -0.72.
With knock-down of CG13331 [DRSC06366], the screen gave replicate 1, z-score of dpERK with insulin -0.99; replicate 2, z-score of dpERK with insulin 0.35.
Knock-down of l(2)k09848 [DRSC04894] resulted in: replicate 1, z-score of dpERK with insulin -0.33; replicate 2, z-score of dpERK with insulin -0.21.
CG9782 [DRSC19145] scored replicate 1, z-score of dpERK with insulin 0; replicate 2, z-score of dpERK with insulin -0.54.
Against CG9782 [DRSC20209] the deposit lists replicate 1, z-score of dpERK with insulin 1.15; replicate 2, z-score of dpERK with insulin 0.42.
